These are yes or no findings as the source states them, for the method shown. Some entries that bind do so weakly or less than the wild type.
Molecular target: chondroitin sulfate proteoglycan 4 (CSPG4), endogenous on HeLa cells (human (endogenous in HeLa)) (UniProt Q6UVK1)
Test: cell-surface binding assay with immunoblot; only the binder purified

Amino acid sequences for entries named in this document (tags omitted). A change or cut given only in a name is not applied to a line headed by its entry. Residues count along the entry.
UniProt Q6UVK1, residues 30-2322: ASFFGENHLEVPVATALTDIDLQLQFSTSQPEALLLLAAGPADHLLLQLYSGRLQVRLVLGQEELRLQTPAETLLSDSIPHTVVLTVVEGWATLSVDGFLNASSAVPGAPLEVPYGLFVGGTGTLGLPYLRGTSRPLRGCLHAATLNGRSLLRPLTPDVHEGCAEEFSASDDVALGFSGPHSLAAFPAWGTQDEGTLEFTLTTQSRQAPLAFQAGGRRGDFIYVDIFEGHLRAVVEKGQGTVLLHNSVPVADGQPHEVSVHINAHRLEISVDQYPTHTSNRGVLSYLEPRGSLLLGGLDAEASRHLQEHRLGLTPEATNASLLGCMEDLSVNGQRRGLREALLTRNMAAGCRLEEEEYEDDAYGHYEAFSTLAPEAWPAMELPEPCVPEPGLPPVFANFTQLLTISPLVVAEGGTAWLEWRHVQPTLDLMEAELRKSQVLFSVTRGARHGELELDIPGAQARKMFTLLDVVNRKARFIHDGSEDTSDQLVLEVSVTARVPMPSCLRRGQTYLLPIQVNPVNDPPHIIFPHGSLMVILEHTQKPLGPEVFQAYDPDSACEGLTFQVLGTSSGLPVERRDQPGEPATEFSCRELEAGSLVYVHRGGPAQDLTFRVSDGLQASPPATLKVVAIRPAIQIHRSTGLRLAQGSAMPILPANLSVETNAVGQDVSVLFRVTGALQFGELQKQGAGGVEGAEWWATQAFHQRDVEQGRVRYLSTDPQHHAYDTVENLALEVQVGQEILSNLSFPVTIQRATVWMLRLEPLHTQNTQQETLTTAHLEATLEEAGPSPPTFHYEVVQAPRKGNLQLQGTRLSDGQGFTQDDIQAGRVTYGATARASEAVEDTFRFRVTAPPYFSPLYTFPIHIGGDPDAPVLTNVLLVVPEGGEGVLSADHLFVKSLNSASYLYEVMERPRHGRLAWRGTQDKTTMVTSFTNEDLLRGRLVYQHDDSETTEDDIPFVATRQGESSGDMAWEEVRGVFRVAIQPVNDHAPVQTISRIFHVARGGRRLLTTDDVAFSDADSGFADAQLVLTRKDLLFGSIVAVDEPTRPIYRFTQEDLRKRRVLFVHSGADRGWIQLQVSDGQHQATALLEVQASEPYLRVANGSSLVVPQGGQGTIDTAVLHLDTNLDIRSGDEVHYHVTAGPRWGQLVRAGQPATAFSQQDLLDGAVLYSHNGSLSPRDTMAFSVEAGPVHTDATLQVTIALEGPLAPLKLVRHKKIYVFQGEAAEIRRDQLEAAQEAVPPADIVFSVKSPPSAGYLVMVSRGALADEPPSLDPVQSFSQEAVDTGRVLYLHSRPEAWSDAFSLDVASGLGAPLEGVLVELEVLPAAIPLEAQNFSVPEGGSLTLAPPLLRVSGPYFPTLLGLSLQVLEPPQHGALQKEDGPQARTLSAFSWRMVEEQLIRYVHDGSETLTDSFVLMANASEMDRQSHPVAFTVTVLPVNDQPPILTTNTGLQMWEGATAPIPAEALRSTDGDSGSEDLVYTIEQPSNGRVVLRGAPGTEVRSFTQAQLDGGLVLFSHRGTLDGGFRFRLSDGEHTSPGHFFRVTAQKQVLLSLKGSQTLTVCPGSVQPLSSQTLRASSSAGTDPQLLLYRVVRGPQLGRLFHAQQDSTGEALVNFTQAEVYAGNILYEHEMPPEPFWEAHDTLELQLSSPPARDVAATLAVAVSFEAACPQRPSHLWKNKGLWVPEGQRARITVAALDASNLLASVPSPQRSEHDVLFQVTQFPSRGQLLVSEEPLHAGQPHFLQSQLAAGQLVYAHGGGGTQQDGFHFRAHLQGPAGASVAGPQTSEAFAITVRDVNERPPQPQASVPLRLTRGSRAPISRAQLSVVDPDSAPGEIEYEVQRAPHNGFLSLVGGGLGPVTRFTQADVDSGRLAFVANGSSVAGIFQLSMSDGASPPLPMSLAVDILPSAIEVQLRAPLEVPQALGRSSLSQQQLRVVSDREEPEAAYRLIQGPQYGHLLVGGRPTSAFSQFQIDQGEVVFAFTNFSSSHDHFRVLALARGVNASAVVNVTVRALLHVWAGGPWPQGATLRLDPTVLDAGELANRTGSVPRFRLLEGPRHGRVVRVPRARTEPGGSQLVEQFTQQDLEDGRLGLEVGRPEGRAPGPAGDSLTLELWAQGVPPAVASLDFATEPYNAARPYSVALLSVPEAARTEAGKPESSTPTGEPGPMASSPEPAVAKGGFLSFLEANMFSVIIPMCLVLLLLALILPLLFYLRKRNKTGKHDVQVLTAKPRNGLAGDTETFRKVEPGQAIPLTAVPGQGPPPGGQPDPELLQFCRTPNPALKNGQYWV
UniProt Q189K3: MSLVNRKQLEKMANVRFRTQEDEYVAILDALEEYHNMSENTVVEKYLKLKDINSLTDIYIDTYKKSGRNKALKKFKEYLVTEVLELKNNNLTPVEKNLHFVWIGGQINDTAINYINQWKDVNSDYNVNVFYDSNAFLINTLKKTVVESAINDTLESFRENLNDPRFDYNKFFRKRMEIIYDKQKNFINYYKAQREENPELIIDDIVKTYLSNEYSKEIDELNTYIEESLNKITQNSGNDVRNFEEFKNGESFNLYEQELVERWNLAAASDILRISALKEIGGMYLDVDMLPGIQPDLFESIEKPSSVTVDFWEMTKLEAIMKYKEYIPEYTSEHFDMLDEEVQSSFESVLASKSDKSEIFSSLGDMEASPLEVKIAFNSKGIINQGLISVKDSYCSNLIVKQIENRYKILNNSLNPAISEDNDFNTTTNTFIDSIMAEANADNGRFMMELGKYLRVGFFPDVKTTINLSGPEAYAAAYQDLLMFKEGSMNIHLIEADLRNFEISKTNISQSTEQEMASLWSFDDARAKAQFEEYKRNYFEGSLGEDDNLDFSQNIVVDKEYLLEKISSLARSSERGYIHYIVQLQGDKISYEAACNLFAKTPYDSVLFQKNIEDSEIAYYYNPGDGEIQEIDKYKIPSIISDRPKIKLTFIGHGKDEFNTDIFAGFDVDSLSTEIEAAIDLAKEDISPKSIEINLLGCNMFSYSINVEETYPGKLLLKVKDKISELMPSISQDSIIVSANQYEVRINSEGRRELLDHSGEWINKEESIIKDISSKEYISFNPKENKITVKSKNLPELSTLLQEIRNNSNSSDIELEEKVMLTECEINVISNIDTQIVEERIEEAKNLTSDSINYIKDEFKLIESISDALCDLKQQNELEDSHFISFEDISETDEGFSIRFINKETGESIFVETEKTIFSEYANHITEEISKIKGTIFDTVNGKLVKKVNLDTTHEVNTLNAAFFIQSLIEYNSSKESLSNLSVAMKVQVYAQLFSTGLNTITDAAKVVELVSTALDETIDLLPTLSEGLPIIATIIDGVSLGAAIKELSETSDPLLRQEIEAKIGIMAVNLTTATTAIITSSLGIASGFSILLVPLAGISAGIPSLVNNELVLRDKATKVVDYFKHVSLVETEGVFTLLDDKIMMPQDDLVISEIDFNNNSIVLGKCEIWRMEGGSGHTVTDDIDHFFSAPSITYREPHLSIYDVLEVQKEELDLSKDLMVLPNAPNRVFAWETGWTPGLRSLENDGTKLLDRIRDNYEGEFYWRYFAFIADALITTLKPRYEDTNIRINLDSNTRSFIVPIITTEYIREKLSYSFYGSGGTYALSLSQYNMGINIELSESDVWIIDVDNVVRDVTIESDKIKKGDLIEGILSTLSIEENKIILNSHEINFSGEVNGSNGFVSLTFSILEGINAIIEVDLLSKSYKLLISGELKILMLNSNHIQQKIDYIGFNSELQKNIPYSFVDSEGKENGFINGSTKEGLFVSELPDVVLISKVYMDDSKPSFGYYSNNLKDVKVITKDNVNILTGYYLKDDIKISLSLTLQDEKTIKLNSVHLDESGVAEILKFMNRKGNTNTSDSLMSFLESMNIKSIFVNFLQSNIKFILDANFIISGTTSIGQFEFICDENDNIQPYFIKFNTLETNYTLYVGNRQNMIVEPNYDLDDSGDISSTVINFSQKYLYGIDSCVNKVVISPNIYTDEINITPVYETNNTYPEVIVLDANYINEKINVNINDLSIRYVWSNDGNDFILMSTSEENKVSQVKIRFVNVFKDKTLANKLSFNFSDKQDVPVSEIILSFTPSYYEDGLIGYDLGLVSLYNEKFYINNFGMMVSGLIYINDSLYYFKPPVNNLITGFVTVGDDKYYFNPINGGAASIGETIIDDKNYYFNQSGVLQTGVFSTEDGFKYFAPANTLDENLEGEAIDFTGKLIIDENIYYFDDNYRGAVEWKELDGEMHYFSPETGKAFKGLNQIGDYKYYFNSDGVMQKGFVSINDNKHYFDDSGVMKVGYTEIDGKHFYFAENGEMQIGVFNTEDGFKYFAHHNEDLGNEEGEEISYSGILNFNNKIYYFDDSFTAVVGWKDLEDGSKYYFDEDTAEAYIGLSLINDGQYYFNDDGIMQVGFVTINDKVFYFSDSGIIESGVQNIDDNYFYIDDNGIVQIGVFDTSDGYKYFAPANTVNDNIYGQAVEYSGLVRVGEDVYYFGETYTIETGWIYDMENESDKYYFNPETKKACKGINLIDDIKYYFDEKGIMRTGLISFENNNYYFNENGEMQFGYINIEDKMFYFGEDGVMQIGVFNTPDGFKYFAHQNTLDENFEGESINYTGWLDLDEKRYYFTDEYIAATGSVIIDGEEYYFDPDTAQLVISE

For “TcdB1^1-2098 (from UniProt Q189K3 1-2098) (domain or fragment)”, the binding was “binds”.

For “TcdB1^544-2098 (from UniProt Q189K3 544-2098) (domain or fragment)”, the binding was “no binding”.

From article PMC7842947
